PubChem BioAssay AID1159584, Peter MacCallum Cancer Centre – 2016
The deposit covers about 18,000 reagents; shown is a random part of them. Further read-outs or replicates are left out here. The record does not give: the amount of reagent, the time to read-out.

Purpose: 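Genes whose loss is lethal only together with E-cadherin loss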 (primary screen)
Cell system: human MCF10A breast epithelial cells, parental and CDH1-null
Knock-down reagent: siRNA against human genes
Detection: 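ATP luminescence (CellTiter-Glo) viability per line relative to mean mock wells over all plates, and the ratio of CDH1-null to parental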
Reading the numbers: CDH1-null / parental viability ratio: higher = CDH1-null cells survive relatively better than parental

gene | CDH1-null / parental viability ratio
SETDB2 (SET domain bifurcated histone lysine methyltransferase 2) | 0.9
RCOR2 (REST corepressor 2) | 1.2
HAP1 (huntingtin associated protein 1) | 1.25
VSTM1 (V-set and transmembrane domain containing 1) | 0.62
VPS41 (VPS41 subunit of HOPS complex) | 1.02
RNGTT (RNA guanylyltransferase and 5'-phosphatase) | 1.1
ATG16L2 (autophagy related 16 like 2) | 0.96
IAPP (islet amyloid polypeptide) | 1.11
RIGI (RNA sensor RIG-I) | 1.03
ODAD2 (outer dynein arm docking complex subunit 2) | 1.05
EPN1 (epsin 1) | 1.05
PIK3AP1 (phosphoinositide-3-kinase adaptor protein 1) | 1.01
VPS51 (VPS51 subunit of GARP complex) | 0.9
CACNA1B (calcium voltage-gated channel subunit alpha1 B) | 1.26
GPRIN1 (G protein regulated inducer of neurite outgrowth 1) | 1
SNX9 (sorting nexin 9) | 0.85
ANKRD46 (ankyrin repeat domain 46) | 0.8
OLFML2B (olfactomedin like 2B) | 1.12
SKIC8 (SKI8 subunit of superkiller complex) | 0.9
TMEM183A (transmembrane protein 183A) | 0.81
TASL (TLR adaptor interacting with endolysosomal SLC15A4) | 0.83
TMEM138 (transmembrane protein 138) | 0.84
RANBP3L (RAN binding protein 3 like) | 1
SPHKAP (SPHK1 interactor, AKAP domain containing) | 0.73
AXIN1 (axin 1) | 1.1
ZCCHC14 (zinc finger CCHC-type containing 14) | 1.03
RBM24 (RNA binding motif protein 24) | 1
MCOLN3 (mucolipin TRP cation channel 3) | 1.33

Looked up above.
Result of SNX9 (sorting nexin 9) in “CDH1-null / parental viability ratio”: 0.85
Result of VPS41 (VPS41 subunit of HOPS complex) under “CDH1-null / parental viability ratio”: 1.02
TMEM138 (transmembrane protein 138), CDH1-null / parental viability ratio: 0.84
For “CDH1-null / parental viability ratio”, ZCCHC14 (zinc finger CCHC-type containing 14) has 1.03
